# Laboratory results reported in PMC7145534, “Are the intrinsically disordered linkers involved in SSB binding to accessory proteins?” (Nucleic Acids Research, 2019).
# B1: P65: SSB-Ct peptide, C-terminal 65 amino acids of SSB; acidic tip and the full IDL (peptide)
# peptide: GGRQGGGAPAGGNIGGGQPQGGWGQPQQPQGGNQFSGGAQSRPQQSAPAAPSNEPPMDFDDDIPF
# B2: SSBΔ120-166 tetramer (natural protein, E. coli, UniProt P0AGE0 1-178, looked up)
# chain: MASRGVNKVILVGNLGQDPEVRYMPNGGAVANITLATSESWRDKATGEMKEQTEWHRVVLFGKLAEVASEYLRKGSQVYIEGQLRTRKWTDQSGQDRYTTEVVVNVGGTMQMLGGRQGGGPPMDFDDDIPF
# notes: E. coli SSB with residues 120-166 of the IDL deleted, acidic tip kept; All three PXXP motifs deleted; only nine residues of the IDL left; Used apo and in complex with (dT)70
# B3: SSBΔ130-166: SSB tetramer variant with IDL residues 130-166 deleted, retaining the acidic tip (protein)
# chain: MASRGVNKVILVGNLGQDPEVRYMPNGGAVANITLATSESWRDKATGEMKEQTEWHRVVLFGKLAEVASEYLRKGSQVYIEGQLRTRKWTDQSGQDRYTTEVVVNVGGTMQMLGGRQGGGAPAGGNIGGGPPMDFDDDIPF
# B4: SSBΔ151-166 tetramer (natural protein, E. coli, UniProt P0AGE0 1-178, looked up)
# chain: MASRGVNKVILVGNLGQDPEVRYMPNGGAVANITLATSESWRDKATGEMKEQTEWHRVVLFGKLAEVASEYLRKGSQVYIEGQLRTRKWTDQSGQDRYTTEVVVNVGGTMQMLGGRQGGGAPAGGNIGGGQPQGGWGQPQQPQGGNQFSGGPPMDFDDDIPF
# notes: E. coli SSB with residues 151-166 of the IDL deleted, acidic tip kept; Two C-terminal PXXP motifs deleted; Used apo and in complex with (dT)70
# What was measured:
# [1] = tested on: PriA
# [2] = tested on: PriA; conditions: for ΔH (enthalpy change): pH 8.0, 50 mM NaCl, 25°C, K, N, ΔH floated
# [3] = tested on: RecO
# [4] = tested on: PriC; assay: Sedimentation velocity, effect of P15 on PriC; format: binding, Escherichia coli
# [5] = tested on: DNA Pol III (χ); assay: ITC of SSB-Ct peptides binding to the χ subunit; design: species or system Escherichia coli; conditions: for ΔH (enthalpy change): pH 8.0, 50 mM NaCl, 25°C, K, N, ΔH floated
# Protocol: (§1) The concentrations were determined thereafter.
# [6] = tested on: E. coli RecO; assay: ITC of SSB-Ct peptides binding to RecO; design: species or system Escherichia coli; conditions: for ΔH (enthalpy change): K, N, ΔH floated
# Protocol: as §1
# [7] = tested on: E. coli RecO; assay: ITC of SSB tetramer–(dT)70 complexes binding to RecO; design: species or system Escherichia coli
# [8] = tested on: RecO; conditions: 0.35 μM tetramer + 3.5 μM RecO, BTP pH 7.0, 200 mM NaCl, 25°C
# [9] = tested on: E. coli RecO; assay: ITC of SSB tetramers (apo) binding to RecO; design: species or system Escherichia coli
# Protocol: as §1
# [10] = Figure S3, 15°C, pH 8.0, 50 mM, N floated
# [11] = Figure S3, 37°C, pH 8.0, 50 mM, N floated
# [12] = Figures S3/S4a, 25°C, pH 8.0, 50 mM NaCl, N floated
# [13] = pH 7, 200 mM NaCl, 15°C, N fixed to 1
# [14] = pH 7.0, 200 mM NaCl, 15 °C, N floated
# [15] = pH 7, 200 mM NaCl, 25°C, N fixed to 1
# [16] = pH 7.0, 200 mM NaCl, 25 °C, N floated
# [17] = pH 7.0, 200 mM NaCl, 37 °C, N floated
# [18] = pH 8, 50 mM NaCl, 25°C, N fixed to 1
# [19] = pH 8.0, 50 mM NaCl, 25 °C, N floated
# [20] = pH 8, 200 mM NaCl, 25°C, N fixed to 1
# [21] = pH 8.0, 200 mM NaCl, 25 °C, N floated
# [22] = in complex with (dT)70, 25°C, BTP pH 7.0, 200 mM NaCl, N fixed to 4
# [23] = in complex with (dT)70, 37°C, BTP pH 7.0, 200 mM NaCl, N fixed to 4
# [24] = apo, 15°C, BTP pH 7.0, 200 mM NaCl, N fixed to 4
# [25] = apo, 25°C, BTP pH 7.0, 200 mM NaCl, N fixed to 4
# [26] = apo, 37°C, BTP pH 7.0, 200 mM NaCl, N fixed to 4
# [27] = apo, 10°C, BTP pH 7.0, 200 mM NaCl, N fixed to 4
molecule,measurement,setting,value
"P15: SSB-Ct peptide, C-terminal 15 amino acids of E. coli SSB, contains acidic tip, no PXXP motifs (PSNEPPMDFDDDIPF)",assembly state of PriA,[1]; 30-fold excess P15,monomeric before and after P15 binding
same,"sedimentation coefficient s20,w of PriA with peptide","[1]; 30-fold excess P15, BTP pH 8.0, 50 mM NaCl, PriA alone 4.09 S",4.19 S
same,ΔH (enthalpy change),[2],-10.0 ± 0.4 kcal/mol
same,assembly state of RecO,[3]; 30-fold excess P15,monomeric before and after P15 binding
same,"sedimentation coefficient s20,w of RecO with peptide","[3]; 30-fold excess P15, BTP pH 8.0, 50 mM NaCl, RecO alone 2.06 S",2.16 S
same,assembly state of PriC,[4]; 30-fold excess P15,higher order species at ~3.5 S is suppressed; also recorded: favors the PriC monomer and suppresses the higher order species
same,"sedimentation coefficient s20,w of PriC with peptide","[4]; 30-fold excess P15, BTP pH 8.0, 10 mM NaCl, PriC alone 1.89 S",1.95 S
same,ΔH (enthalpy change),[5],-8.7 ± 0.8 kcal/mol
same,"change in binding enthalpy, pH 8.0 to 7.0","[6]; 200 mM NaCl, 25°C",~2 kcal/mol
same,"reduction in affinity, pH 8.0 to 7.0","[6]; 200 mM NaCl, 25°C",3 fold
same,ΔH,"[6]; Figure S3, 10°C, pH 8.0, 50 mM, N floated",-0.48 ± 0.01 kcal/mol
same,ΔH,[6]; [10],-2.2 ± 0.04 kcal/mol
same,ΔH,[6]; [11],-9.03 ± 0.16 kcal/mol
same,ΔH,"[6]; Figure S3, 40°C, pH 8.0, 50 mM, N floated",-10.2 ± 0.23 kcal/mol
same,ΔH,[6]; [12],-5.0 ± 0.03 kcal/mol
same,TΔS°,[6]; Table S2 replicate 1,5.1 ± 0.1 kcal/mol
same,ΔG°,[6]; Table S2 replicate 1,-9.9 ± 0.1 kcal/mol
same,ΔH,[6]; Table S2 replicate 1,-4.8 ± 0.1 kcal/mol
same,TΔS°,[6]; Table S2 replicate 2,5.0 ± 0.1 kcal/mol
same,ΔG°,[6]; Table S2 replicate 2,-10.0 ± 0.1 kcal/mol
same,ΔH,[6]; Table S2 replicate 2,-5.0 ± 0.1 kcal/mol
same,TΔS°,[6]; [13],5.9 ± 0.3 kcal/mol
same,ΔG°,[6]; [13],-8.3 ± 0.2 kcal/mol
same,TΔS°,[6]; [14],5.8 ± 0.3 kcal/mol
same,ΔG°,[6]; [14],-8.2 ± 0.3 kcal/mol
same,TΔS°,[6]; [15],2.0 ± 0.3 kcal/mol
same,ΔG°,[6]; [15],-8.1 ± 0.2 kcal/mol
same,TΔS°,[6]; [16],2.2 ± 0.2 kcal/mol
same,ΔG°,[6]; [16],-8.2 ± 0.1 kcal/mol
same,ΔG°,"[6]; pH 7, 200 mM NaCl, 37°C, N fixed to 1",-8.1 ± 0.1 kcal/mol
same,ΔG°,[6]; [17],-8.0 ± 0.2 kcal/mol
same,ΔH,[6]; [17],-8.2 ± 0.1 kcal/mol
same,"heat capacity change, ΔCp","[6]; pH 7.0, 200 mM NaCl, 15-37°C",−0.24 ± 0.06 kcal/mol⋅deg
same,"change in ΔH, 200 mM vs 50 mM NaCl",[6]; pH 8,~1.3 kcal/mol
same,factor by which K is lower at 200 mM vs 50 mM NaCl,[6]; pH 8,4 factor
same,ΔH (enthalpy change),"[6]; pH 8.0, 50 mM NaCl, 25°C",-4.8 ± 0.1 kcal/mol and -4.8 ± 0.7 kcal/mol
same,TΔS°,[6]; [18],4.5 ± 0.2 kcal/mol
same,ΔG°,[6]; [18],-9.7 ± 0.2 kcal/mol
same,TΔS°,[6]; [19],5.1 ± 0.1 kcal/mol
same,ΔG°,[6]; [19],-9.9 ± 0.1 kcal/mol
same,TΔS°,[6]; [20],5.0 ± 0.1 kcal/mol
same,ΔG°,[6]; [20],-8.9 ± 0.1 kcal/mol
same,TΔS°,[6]; [21],4.8 ± 0.1 kcal/mol
same,ΔG°,[6]; [21],-8.8 ± 0.1 kcal/mol
"P31: SSB-Ct peptide, C-terminal 31 amino acids of SSB, includes two of the PXXP motifs (FSGGAQSRPQQSAPAAPSNEPPMDFDDDIPF)",ΔH (enthalpy change),[2],-8.2 ± 1.2 kcal/mol
same,ΔH (enthalpy change),[5],-10.3 ± 0.8 kcal/mol
SSB–(dT)70: 1:1 complex of wtSSB tetramer with (dT)70,"binding stoichiometry, floated","[7]; (dT)70 complex, 15, 25 and 37°C, pH 7.0, 200 mM NaCl",near four
"wtSSB: E. coli single strand DNA binding protein, homo-tetramer, wild type",TΔS°,"[7]; in complex with (dT)70, 15°C, BTP pH 7.0, 200 mM NaCl, N fixed to 4",2.7 ± 0.2 kcal/mol
same,TΔS°,[7]; [22],-1.3 ± 0.2 kcal/mol
same,ΔG°,[7]; [22],-9.0 ± 0.1 kcal/mol
same,TΔS°,[7]; [23],3.9 ± 0.6 kcal/mol
same,ΔG°,[7]; [23],-9.2 ± 0.3 kcal/mol
same,sedimentation coefficient of SSB peak in presence of RecO,[8],1.7 S
same,TΔS°,[9]; [24],-1.8 ± 0.3 kcal/mol
same,ΔG°,[9]; [24],-8.0 ± 0.1 kcal/mol
same,TΔS°,[9]; [25],-1.0 ± 0.5 kcal/mol
same,ΔG°,[9]; [25],-8.4 ± 0.8 kcal/mol
same,TΔS°,[9]; [26],0.4 ± 0.8 kcal/mol
same,ΔG°,[9]; [26],-8.7 ± 0.1 kcal/mol
same,"heat capacity change, ΔCp","[9]; apo, per SSB tail, pH 7.0, 200 mM NaCl, 15-37°C, listed as SSB",0.06 ± 0.01 kcal/mol⋅deg
B1,TΔS°,[2]; Table S2 replicate 1,-0.7 ± 0.7 kcal/mol
same,ΔH,[2]; Table S2 replicate 1,-8.5 ± 0.7 kcal/mol
same,TΔS°,[2]; Table S2 replicate 2,-1.2 ± 1.0 kcal/mol
same,ΔG°,[2]; Table S2 replicate 2,-7.5 ± 0.1 kcal/mol
same,ΔH,[2]; Table S2 replicate 2,-8.7 ± 1.0 kcal/mol
same,ΔH (enthalpy change),[2],-8.5 ± 0.7 kcal/mol
same,ΔG°,[5]; Table S2 replicate 1,-7.9 ± 0.1 kcal/mol
same,ΔH,[5]; Table S2 replicate 1,-10.2 ± 0.9 kcal/mol
same,ΔG°,[5]; Table S2 replicate 2,-7.5 ± 0.1 kcal/mol
same,ΔH (enthalpy change),[5],-10.2 ± 0.9 kcal/mol
same,ΔH,[6]; [10],-2.58 ± 0.02 kcal/mol
same,ΔH,[6]; [11],-9.04 ± 0.87 kcal/mol
same,ΔH,[6]; [12],-5.18 ± 0.23 kcal/mol
same,TΔS°,[6]; Table S2 replicate 1,4.9 ± 0.1 kcal/mol
same,ΔH,[6]; Table S2 replicate 1,-4.9 ± 0.1 kcal/mol
same,TΔS°,[6]; Table S2 replicate 2,6.4 ± 0.2 kcal/mol
same,ΔG°,[6]; Table S2 replicate 2,-10.5 ± 0.1 kcal/mol
same,ΔH,[6]; Table S2 replicate 2,-4.1 ± 0.1 kcal/mol
same,TΔS°,[6]; Table S2 replicate 3,5.5 ± 0.1 kcal/mol
same,ΔG°,[6]; Table S2 replicate 3,-10.3 ± 0.1 kcal/mol
same,ΔH,[6]; Table S2 replicate 3,-4.8 ± 0.1 kcal/mol
same,ΔH (enthalpy change),"[6]; pH 8.0, 50 mM NaCl, 25°C",-4.9 ± 0.1 kcal/mol
B2,TΔS°,[7]; [22],3.3 ± 0.1 kcal/mol
same,ΔG°,[7]; [22],-9.3 ± 0.1 kcal/mol
same,ΔH* (ΔH per tip),[7]; [22],-6.0 ± 0.1 kcal/mol
same,sedimentation coefficient of SSB peak in presence of RecO,[8],1.6 S
same,TΔS°,[9]; [27],0.4 ± 0.1 kcal/mol
same,ΔG°,[9]; [27],-8.5 ± 0.1 kcal/mol
same,ΔH* (ΔH per tip),[9]; [27],-8.1 ± 0.1 kcal/mol
same,N (stoichiometry),"[9]; apo, 10°C, pH 7.0, 200 mM NaCl, N floated (Figure S5)",4.03 ± 0.19
same,"heat capacity change, ΔCp","[9]; apo, pH 7.0, 200 mM NaCl, from ΔH at 10°C and 25°C",~0.54 kcal/mol⋅deg
B3,TΔS°,[7]; [22],4.7 ± 0.1 kcal/mol
same,ΔG°,[7]; [22],-9.2 ± 0.1 kcal/mol
same,sedimentation coefficient of SSB peak in presence of RecO,[8],1.5 S
same,TΔS°,[9]; Table S2 replicate 1,7.1 ± 0.6 kcal/mol
same,ΔG°,[9]; Table S2 replicate 1,-8.9 ± 0.1 kcal/mol
same,ΔH,"[9]; Table S2 replicate 1, ΔH per tip",-1.8 ± 0.6 kcal/mol
same,TΔS°,[9]; Table S2 replicate 2,6.4 ± 0.1 kcal/mol
same,ΔG°,[9]; Table S2 replicate 2,-8.7 ± 0.1 kcal/mol
same,ΔG°,[9]; [25],-8.5 kcal/mol and -8.5 ± 0.1 kcal/mol
B4,TΔS°,[7]; [22],0.3 ± 0.1 kcal/mol
same,ΔG°,[7]; [22],-9.0 ± 0.1 kcal/mol
same,sedimentation coefficient of SSB peak in presence of RecO,[8],1.6 S
same,TΔS°,[9]; [25],1.9 ± 0.1 kcal/mol
same,ΔG°,[9]; [25],-8.9 ± 0.1 kcal/mol

# “And” between values parts separate entries of the source, which are not always exact repeats. Equal entries are not always repeated. “Also recorded” adds a separate entry of the source. Where two headings read alike, the source gives them in different places.
